# Results as given in publication PMC4981888.
# No constants are given. Whether binding was seen depends on the method and setting. In cells and extracts the contact can be indirect. Some results given as binding are weak or reduced against the parent protein; the word gives no strength.
# Biological target: Survivin, endogenous (human (endogenous in MDA-MB-231)) (UniProt O15392)
# Test: co-IP; endogenous SVV precipitated from 1 mg crude MDA-MB-231 lysate (0.5% NP-40 in PBS) with anti-SVV antibody D-8 and protein G sepharose, 4 °C; lysate with no nanobody or pre-incubated with 5 μg GFPNb or SVVNb8; Western blot
substance,measurement,value
"Hsp90AA1, endogenous (from UniProt P07900 1-732)",binding,binds
